# Assay results as given in PubChem BioAssay AID434947 (Broad Institute, 2010).
# The whole screen tested about 2,200 compounds, of which about 15 (0.7%) were called active.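 The calls were made as follows: active = fitted half-maximal concentration for loss of luminescence signal no more than a set limit of log units above the top tested concentration; inconclusive = flat fit with 30 to 70% signal loss, or invalid fit; inactive = half-maximal concentration above that set limit.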 Some of the results follow.
# Assay: inhibitors of ADP-Glo detection reagents, dose response, artefact control for GSK3beta inhibitor project, biochemical, luminescence, cell-free, homogeneous (AID 434947);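 also: kinase-free counter screen of ADP-Glo detection reagents for GSK3beta hits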
# Conditions: 5 uM ADP
row,SMILES,EC50
1,O=C1NC(c2cccnc2)Nc2sc3c(c21)CCCC3 (stereo not given),inactive: > 30 µM
2,C[C@H]1CCCC(=O)CCC/C=C/c2cc(O)cc(O)c2C(=O)O1,inactive: > 30 µM
3,CC(C)=CCc1c(O)cc2c(c1O)C(=O)CC(c1ccc(O)cc1)O2 (stereo not given),inactive: > 30 µM
4,CC(C)n1c(O)c(C=NCc2cccnc2)c(=O)[nH]c1=S,inactive: > 30 µM
5,Cc1cc2c(s1)NC(=O)CN=C2c1cccs1,inactive: > 30 µM
6,COc1cc(CN=Cc2c(O)n(C(C)(C)C)c(=O)[nH]c2=O)cc(OC)c1,inactive: > 30 µM
7,CCOc1ccccc1NC(=O)N1CCC2(CC1)OCCO2,inactive: > 30 µM
8,CN1CCN(c2ccc([N+](=O)[O-])cc2Cl)CC1,inactive: > 30 µM
9,Cn1ncnc2c(=O)n(C)c(=O)nc1-2,inactive: > 30 µM
10,C=CCN1C(=O)NC(=O)/C(=C/c2ccc(OCC(=O)Nc3ccc(C)cc3)cc2)C1=O,inactive: > 30 µM
11,CCOC(=O)Cc1csc(NC(=O)c2c(O)c3ccccc3n(CCC(C)C)c2=O)n1,inactive: > 30 µM
12,O=C(O)CCn1cc(C=C2C(=O)NC(=S)NC2=O)c(-c2ccccc2)n1,inactive: > 30 µM
13,CCCCCCn1c(O)c(C=NCCCn2ccnc2)c(=O)[nH]c1=O,inactive: > 30 µM
14,O=c1[nH]c(=O)n(Cc2ccc(F)cc2)c(O)c1C=NCCN1CCCCC1,inactive: > 30 µM
15,COc1ccc2c(c1)/C(=C/c1cnc[nH]1)C(=O)N2,inactive: > 30 µM
16,Nc1ncnc2c1ccn2[C@@H]1O[C@H](CO)[C@@H](O)[C@H]1O,inactive: > 30 µM
17,Cc1ccc2c(c1)C1CN(C)CCC1N2C(=O)Nc1cccc(Cl)c1 (stereo not given),inactive: > 30 µM
18,COc1ccc(CC(=O)N2C[C@H]3C[C@@H](C2)c2cccc(=O)n2C3)cc1,inactive: > 30 µM

# Nine successive records already listed:
row,SMILES,EC50
7,CCOc1ccccc1NC(=O)N1CCC2(CC1)OCCO2,inactive: > 30 µM
8,CN1CCN(c2ccc([N+](=O)[O-])cc2Cl)CC1,inactive: > 30 µM
9,Cn1ncnc2c(=O)n(C)c(=O)nc1-2,inactive: > 30 µM
10,C=CCN1C(=O)NC(=O)/C(=C/c2ccc(OCC(=O)Nc3ccc(C)cc3)cc2)C1=O,inactive: > 30 µM
11,CCOC(=O)Cc1csc(NC(=O)c2c(O)c3ccccc3n(CCC(C)C)c2=O)n1,inactive: > 30 µM
12,O=C(O)CCn1cc(C=C2C(=O)NC(=S)NC2=O)c(-c2ccccc2)n1,inactive: > 30 µM
13,CCCCCCn1c(O)c(C=NCCCn2ccnc2)c(=O)[nH]c1=O,inactive: > 30 µM
14,O=c1[nH]c(=O)n(Cc2ccc(F)cc2)c(O)c1C=NCCN1CCCCC1,inactive: > 30 µM
15,COc1ccc2c(c1)/C(=C/c1cnc[nH]1)C(=O)N2,inactive: > 30 µM

# Later entries.

row,SMILES,EC50
1,Clc1ccccc1CN1CCN(c2cccc3[nH]ccc23)CC1,inactive: > 30 µM
2,Cc1ccc(NC(=O)c2ccc(C)c(S(=O)(=O)N3CCCCC3)c2)nc1,inactive: > 30 µM
3,NC(=S)c1cn(C2OC(CO)C(O)C2O)c2ncnc(N)c12 (stereo not given),inactive: > 30 µM
4,CC(=O)Nc1ccccc1C(=O)OCc1ccc(C(=O)c2ccccc2)cc1,inactive: > 30 µM
5,CN1CCN(c2cc([N+](=O)[O-])ccc2Cl)CC1,inactive: > 30 µM
6,N#CCCn1cc(C(=O)O)c(-c2cccc([N+](=O)[O-])c2)n1,inactive: > 30 µM
7,CCc1cc2c(s1)NC(=O)CN=C2c1cccs1,inactive: > 30 µM
8,Cc1nonc1-c1nc(-c2nonc2N)n[nH]1,inactive: > 30 µM
9,O=c1[nH]c(=O)n(CCc2ccc(F)cc2)c(O)c1/C=N/N1CCCCC1,inactive: > 30 µM
10,O=C1Nc2ccccc2/C1=C/c1cnc[nH]1,inactive: > 30 µM
11,O=c1[nH]c2ccccc2c(=O)n1-c1ccc(Cl)cc1Cl,inactive: > 30 µM
12,COc1cc2c(cc1O)C[C@H]1NCCc3cc4c(c-2c31)OCO4,inactive: > 30 µM
13,CC[n+]1c(/C=C/N(C)c2ccccc2)sc2ccc(Cl)cc21,inactive: > 30 µM
14,O=C1CN=C(c2ccccc2)c2c(sc3c2CCCC3)N1,inactive: > 30 µM
15,O=C1CN=C(c2cccs2)c2c(sc3c2CCCC3)N1,inactive: > 30 µM
16,O=c1[nH]c(=S)n(-c2ccccc2F)c(O)c1C=NCc1ccco1,inactive: > 30 µM
17,C[C@H]1[C@@H](c2ccccc2)O[C@@H](c2ccccc2Br)N1C,inactive: > 30 µM
